PubChem BioAssay AID1224826, NIAID – 2016
In all, the deposit lists about 17,000 reagents; below is a random part of them. In the full data, about 1,110 (6.6%) got an active call. 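Active means lowered or raised reporter signal; replicate intensities are raw and not normalised per plate.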 A number with no mark means an inactive call. Further read-outs or replicates are left out here.

- Purpose: 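Knock-downs that raise or lower Tnf reporter signal after endotoxin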 (primary screen)
- System: RAW264.7 G9 macrophages from mouse bearing reporters for p65 (GFP) and the Tnf promoter (mCherry)
- Knock-down reagent: siRNA pool against mouse genes, 100 nM
- Duration: 16 h of LPS stimulation, after 2 days of siRNA transfection
- Conditions: bacterial lipopolysaccharide (Salmonella minnesota R595), 10 ng/ml
- Measured: 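Imaged Tnf reporter mCherry in nuclei, minus background, normalised per plate to the median and expressed as robust z-scores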
- Scale: Tnf reporter robust z-score: higher = stronger Tnf promoter reporter signal after LPS
- Call rule: 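a well counts as active at a score of -1.3 or below (Tlr4 knock-down control median) or above 3 (raised signal); controls and wells holding fewer than 50 cells are excluded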
- Calls: active = Tnf reporter clearly lowered or raised; inactive = no clear change in Tnf reporter

gene	Tnf reporter robust z-score	fewer than 50 cells in well
Arhgef6 (Rac/Cdc42 guanine nucleotide exchange factor 6)	-0.92	enough cells in well
Mgl2	-0.11	enough cells in well
Vmn1r89 (vomeronasal 1 receptor 89)	-0.51	enough cells in well
Cnot9 (CCR4-NOT transcription complex, subunit 9)	0.42	enough cells in well
Tas2r109 (taste receptor, type 2, member 109)	-0.03	enough cells in well
AY074887 (cDNA sequence AY074887)	-0.85	enough cells in well
Acly (ATP citrate lyase)	-0.22	enough cells in well
Atg4b (autophagy related 4B, cysteine peptidase)	-0.93	enough cells in well
Ift56 (intraflagellar transport 56)	0.1	enough cells in well
Alas1 (aminolevulinic acid synthase 1)	0.87	enough cells in well
Fbxw8 (F-box and WD-40 domain protein 8)	0.62	enough cells in well
Szt2 (SZT2 subunit of KICSTOR complex)	0.41	enough cells in well
Rpe (ribulose-5-phosphate-3-epimerase)	0.48	enough cells in well
Tcp11l1 (t-complex 11 like 1)	-1.45 (active)	enough cells in well
Tspyl5 (testis-specific protein, Y-encoded-like 5)	0.14	enough cells in well
Slc35g3	-0.44	enough cells in well
Tpi1 (triosephosphate isomerase 1)	-1.16	enough cells in well
D130060J02Rik (RIKEN cDNA D130060J02 gene)	0.33	enough cells in well
Or7e168 (olfactory receptor family 7 subfamily E member 168)	0.43	enough cells in well
Evi5l (ecotropic viral integration site 5 like)	-0.24	enough cells in well
Mef2a (myocyte enhancer factor 2A)	0.05	enough cells in well
Trav7d-6 (T cell receptor alpha variable 7D-6)	0.77	enough cells in well
Exoc6 (exocyst complex component 6)	-0.63	enough cells in well
Rspo1 (R-spondin 1)		fewer than 50 cells per well; well left out of calls
Cdk5rap1 (CDK5 regulatory subunit associated protein 1)	-0.09	enough cells in well
Timm8b (translocase of inner mitochondrial membrane 8B)	2.32	enough cells in well

5 neighbouring records from above:
gene	Tnf reporter robust z-score	fewer than 50 cells in well
Trav7d-6 (T cell receptor alpha variable 7D-6)	0.77	enough cells in well
Exoc6 (exocyst complex component 6)	-0.63	enough cells in well
Rspo1 (R-spondin 1)		fewer than 50 cells per well; well left out of calls
Cdk5rap1 (CDK5 regulatory subunit associated protein 1)	-0.09	enough cells in well
Timm8b (translocase of inner mitochondrial membrane 8B)	2.32	enough cells in well

More entries follow.
gene	Tnf reporter robust z-score	fewer than 50 cells in well
Egfbp2 (epidermal growth factor binding protein type B)	0.79	enough cells in well
Usp21 (ubiquitin specific peptidase 21)	-1.07	enough cells in well
Pde1c (phosphodiesterase 1C)	0.05	enough cells in well
Ifna2 (interferon alpha 2)	-0.62	enough cells in well
Tnrc6b (trinucleotide repeat containing 6b)	0.9	enough cells in well
Cks1b (CDC28 protein kinase 1b)	-1.13	enough cells in well
Arf5 (ARF GTPase 5)	1.17	enough cells in well
Syncrip (synaptotagmin binding, cytoplasmic RNA interacting protein)	-0.79	enough cells in well
Tada3 (transcriptional adaptor 3)	1.22	enough cells in well
Trp73 (transformation related protein 73)	0	enough cells in well
Plin5 (perilipin 5)		fewer than 50 cells per well; well left out of calls
Tnfsf13 (tumor necrosis factor (ligand) superfamily, member 13)		fewer than 50 cells per well; well left out of calls
Or2y14 (olfactory receptor family 2 subfamily Y member 14)	0	enough cells in well
Mecp2 (methyl CpG binding protein 2)	-0.99	enough cells in well
Gsap (gamma-secretase activating protein)	0.73	enough cells in well
Slc22a2	-0.79	enough cells in well
Mllt6	-0.24	enough cells in well
Atn1 (atrophin 1)	-0.26	enough cells in well
Slc2a10		fewer than 50 cells per well; well left out of calls
Inpp5a (inositol polyphosphate-5-phosphatase A)	0.1	enough cells in well
Lingo1 (leucine rich repeat and Ig domain containing 1)	2.59	enough cells in well
Dnajc12 (DnaJ heat shock protein family (Hsp40) member C12)	5.31 (active)	enough cells in well
E230025N22Rik (Riken cDNA E230025N22 gene)	0.92	enough cells in well
Bmi1 (Bmi1 proto-oncogene, polycomb ring finger)	1.02	enough cells in well
Tpt1 (tumor protein, translationally-controlled 1)		fewer than 50 cells per well; well left out of calls
Cyp2b13 (cytochrome P450, family 2, subfamily b, polypeptide 13)	0.67	enough cells in well
Grina	-1.4 (active)	enough cells in well
Scel (sciellin)	-0.89	enough cells in well
Actn3 (actinin alpha 3)	0.78	enough cells in well
Cdc50a (cell division cycle 50 P4-ATPase accessory subunit A)		fewer than 50 cells per well; well left out of calls
Map3k4 (mitogen-activated protein kinase kinase kinase 4)	-1.37 (active)	enough cells in well
Crym (crystallin, mu)	0.3	enough cells in well
